Laboratory results from patent US20180177842A1 (CANIMGUIDE THERAPEUTICS, published 2018).
No constants are given. Whether binding was seen depends on the method and setting. Some entries that bind do so weakly or less than the wild type. For some of these results: Tags and fused reporters may be left off the sequences shown.

The chains behind the UniProt entries cited, without tags or fusion partners. Where a name states a change or a piece, a line headed by the entry shows the natural chain unless it says otherwise.
UniProt P20701: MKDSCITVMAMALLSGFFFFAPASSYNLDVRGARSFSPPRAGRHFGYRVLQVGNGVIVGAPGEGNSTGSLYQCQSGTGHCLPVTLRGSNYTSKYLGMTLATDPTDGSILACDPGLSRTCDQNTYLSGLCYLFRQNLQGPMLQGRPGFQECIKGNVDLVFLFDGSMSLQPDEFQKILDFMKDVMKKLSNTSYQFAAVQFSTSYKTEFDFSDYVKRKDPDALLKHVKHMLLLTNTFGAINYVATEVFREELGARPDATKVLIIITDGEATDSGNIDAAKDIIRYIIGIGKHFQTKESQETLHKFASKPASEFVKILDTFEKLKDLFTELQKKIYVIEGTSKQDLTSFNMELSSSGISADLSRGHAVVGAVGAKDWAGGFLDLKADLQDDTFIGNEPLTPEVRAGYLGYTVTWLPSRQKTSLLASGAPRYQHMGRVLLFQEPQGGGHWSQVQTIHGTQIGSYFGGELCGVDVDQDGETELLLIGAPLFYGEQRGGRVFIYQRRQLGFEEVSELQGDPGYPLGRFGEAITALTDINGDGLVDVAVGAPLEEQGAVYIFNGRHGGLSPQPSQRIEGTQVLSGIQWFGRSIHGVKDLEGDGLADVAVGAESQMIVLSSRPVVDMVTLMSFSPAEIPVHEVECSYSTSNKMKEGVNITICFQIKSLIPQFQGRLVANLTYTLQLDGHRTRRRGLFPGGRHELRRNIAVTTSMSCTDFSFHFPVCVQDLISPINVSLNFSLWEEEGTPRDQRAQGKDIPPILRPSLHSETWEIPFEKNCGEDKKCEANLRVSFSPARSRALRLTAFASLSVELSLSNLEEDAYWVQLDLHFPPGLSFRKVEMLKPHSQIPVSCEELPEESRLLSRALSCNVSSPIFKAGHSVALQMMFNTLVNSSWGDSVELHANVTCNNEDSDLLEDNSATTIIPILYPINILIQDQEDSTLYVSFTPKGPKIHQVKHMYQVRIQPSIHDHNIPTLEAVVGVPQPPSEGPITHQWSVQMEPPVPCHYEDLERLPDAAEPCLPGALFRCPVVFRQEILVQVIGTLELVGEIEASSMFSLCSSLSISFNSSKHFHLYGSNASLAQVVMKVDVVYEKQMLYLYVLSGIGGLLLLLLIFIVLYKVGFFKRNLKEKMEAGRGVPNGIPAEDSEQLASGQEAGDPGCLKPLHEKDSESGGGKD

Columns and labels:
His-tagged P3028 (PGE73) [1] = molecular target: T1, His-tagged P3028 (PGE73) (human, also: His tag, length and end not given here); test: PEPSCAN ELISA: peptide on chip, His-tagged P3028 in solution
T1 construct: the tag is put first here only for want of a statement; also called His-tag-P3028; not shown: His tag
T1 peptide: VFDEFKPLVEEPQNLIK

His-tagged P3028 (PGE73) [2] = molecular target: T1, His-tagged P3028 (PGE73); test: peptide at 0.5 mg/mL in solution with His-tagged P3028 on a PEPSCAN chip
LFA-1 (human) [3] = molecular target: LFA-1 (human) (UniProt P20701); test: summary
LFA-1 (human) [4] = molecular target: LFA-1 (human) (UniProt P20701); test: summary of anti-LFA-1 staining of PBMCs and of the CD25 ELISA

B1: SEQ ID NO 98 (peptide)
peptide: KKLDTFFVGLSLFTER
Question: For B1, which binding (His-tagged P3028 (PGE73) [1]) is on record?
Answer: binds

B2: SCF28 (peptide)
peptide: KKLDTFFKKLSLFTE
Question: How did the binding (His-tagged P3028 (PGE73) [2]) turn out when B2 was run?
Answer: binds

B3: P3028 (peptide)
peptide: VFDEFKPLVEEPQNLIK
Question: What does the source list for B3?
Answer: binding (LFA-1 (human) [3]): binds; binding (LFA-1 (human) [4]): binds
